Results taken from US20150352127A1, “INHALATION PARTICLES COMPRISING A COMBINATION OF AN ANTICHOLINERGIC, A CORTICOSTEROID AND A BETA-ADRENERGIC” (CHIESI FARMACEUTICI S.P.A., priority 2014, published 2015).
Structures can show the parent of a compound that is named as a salt.

Legend:
Type in all cases: physicochemical
[1] = Drug content of the microparticles by UPLC assay; conditions: in spray dried microparticles of Example 1; mean±SD, n=5
[2] = Uniformity of distribution of the active ingredients in the powder formulation (UPLC-PDA); conditions: powder formulation of Example 3
Description: About 10 mg of the formulation was weighed directly into a 25 mL volumetric flask. It was sampled 10 times. The flask was made up to volume with 60:40% v/v MeOH:H2O and sonicated for 2 minutes. The samples were analyzed for each active ingredient using UPLC-PDA assay.

[3] = Aerosol performances by Next Generation Impactor (NGI) from NEXThaler; conditions: formulation of Example 3, NEXThaler, 60 L/min; mean±S.D., n=6
Description: Aerosol performances were determined using the Next Generation Impactor (NGI) with a USP induction port and pre-separator containing 15 mL 60:40% v/v MeOH:H2O. […] The aerodynamic particle size distribution was based on 5 actuations from the NEXThaler®, each sampled into 4 liters of air (equivalent to an inhalation time of 4 s). The device was weighed before and after each actuation to determine the shot weight (mg). A minimum of 1 minute was allowed between consecutive actuations to allow static charge to dissipate.
Samples were collected from the NGI using a fixed volume technique. MeOH:H2O (60:40% v/v) was dispensed into the induction port (including mouthpiece); pre-separator; and each stage using an electronic metering dispenser. The induction port (30 mL) and pre-separator (50 mL) were sealed using silicone bungs and shaken by hand for 2 minutes before the samples were collected. The NGI stages (10 mL stages 1-2; 15 mL stage 3-MOC) were rocked using a NGI rocker for 3 minutes. All samples were filtered using a 0.2 μm syringe filter before analysis by UPLC-PDA.

SMILES: COc1ccc(CC(C)NCC(O)c2ccc(O)c(NC=O)c2)cc1 (stereo not shown) [FF, formoterol fumarate dihydrate]
- Actual concentration [1]: 5.1 ± 0.0 % w/w
- % of Target [2]: 101.27%
- Content ([2]; sampled 10 times): 6.08 ± 0.08 μg 10 mg^−1
- FPF (fine particle fraction) [3]: 70.2 ± 3.0%
- FPF < 1 μm (extrafine FPF) [3]: 21.6 ± 1.0%
- FPF < 2 μm (extrafine FPF) [3]: 39.7 ± 1.1%
- MMAD [3]: 1.9 ± 0.1 μm
